Test results as given in paper PMC5527284.

Amino acid sequences for entries named in this document (tags omitted). A change or cut given only in a name is not applied to a line headed by its entry.
UniProt Q3TKT4: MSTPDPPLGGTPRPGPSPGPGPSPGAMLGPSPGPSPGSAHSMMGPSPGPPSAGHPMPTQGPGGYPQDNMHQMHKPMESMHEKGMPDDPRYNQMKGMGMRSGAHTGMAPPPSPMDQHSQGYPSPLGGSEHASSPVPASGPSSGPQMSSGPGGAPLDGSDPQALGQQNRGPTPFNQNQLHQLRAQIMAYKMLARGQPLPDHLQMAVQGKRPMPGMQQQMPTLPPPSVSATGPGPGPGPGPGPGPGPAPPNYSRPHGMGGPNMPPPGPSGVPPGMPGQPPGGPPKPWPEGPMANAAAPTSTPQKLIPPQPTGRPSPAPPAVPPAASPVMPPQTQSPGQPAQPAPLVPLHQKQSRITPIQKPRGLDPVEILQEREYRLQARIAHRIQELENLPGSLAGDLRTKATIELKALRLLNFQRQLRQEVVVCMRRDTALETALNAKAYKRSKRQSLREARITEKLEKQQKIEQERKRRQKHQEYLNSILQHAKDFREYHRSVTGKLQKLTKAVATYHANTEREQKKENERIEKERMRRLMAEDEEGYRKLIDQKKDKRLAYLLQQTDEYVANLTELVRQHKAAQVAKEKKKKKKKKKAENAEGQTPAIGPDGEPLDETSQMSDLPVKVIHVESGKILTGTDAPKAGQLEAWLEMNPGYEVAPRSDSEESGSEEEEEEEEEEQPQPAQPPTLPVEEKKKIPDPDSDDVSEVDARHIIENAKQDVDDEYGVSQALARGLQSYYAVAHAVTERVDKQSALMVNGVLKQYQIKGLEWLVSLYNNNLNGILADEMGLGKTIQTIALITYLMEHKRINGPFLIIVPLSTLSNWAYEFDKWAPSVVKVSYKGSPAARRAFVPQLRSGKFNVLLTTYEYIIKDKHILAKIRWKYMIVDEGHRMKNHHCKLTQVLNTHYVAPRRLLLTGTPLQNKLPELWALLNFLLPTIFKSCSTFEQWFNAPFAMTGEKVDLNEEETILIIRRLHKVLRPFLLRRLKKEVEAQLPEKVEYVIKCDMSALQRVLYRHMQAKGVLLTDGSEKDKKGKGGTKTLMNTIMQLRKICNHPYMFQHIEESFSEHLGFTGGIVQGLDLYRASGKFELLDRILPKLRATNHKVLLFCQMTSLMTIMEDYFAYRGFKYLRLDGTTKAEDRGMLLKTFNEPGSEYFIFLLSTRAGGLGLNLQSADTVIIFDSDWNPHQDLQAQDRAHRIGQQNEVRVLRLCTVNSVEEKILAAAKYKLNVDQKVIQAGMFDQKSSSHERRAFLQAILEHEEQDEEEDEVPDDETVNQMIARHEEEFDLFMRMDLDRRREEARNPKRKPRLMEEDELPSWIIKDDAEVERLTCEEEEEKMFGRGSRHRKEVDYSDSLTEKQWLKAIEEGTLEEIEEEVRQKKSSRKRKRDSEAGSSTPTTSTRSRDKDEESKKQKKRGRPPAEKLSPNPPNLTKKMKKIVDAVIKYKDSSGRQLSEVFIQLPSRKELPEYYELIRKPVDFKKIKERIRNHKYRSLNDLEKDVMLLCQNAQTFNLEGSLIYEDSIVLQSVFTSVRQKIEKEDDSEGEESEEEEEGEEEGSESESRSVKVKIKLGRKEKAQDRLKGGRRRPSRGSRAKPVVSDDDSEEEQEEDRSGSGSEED
UniProt Q6DIC0: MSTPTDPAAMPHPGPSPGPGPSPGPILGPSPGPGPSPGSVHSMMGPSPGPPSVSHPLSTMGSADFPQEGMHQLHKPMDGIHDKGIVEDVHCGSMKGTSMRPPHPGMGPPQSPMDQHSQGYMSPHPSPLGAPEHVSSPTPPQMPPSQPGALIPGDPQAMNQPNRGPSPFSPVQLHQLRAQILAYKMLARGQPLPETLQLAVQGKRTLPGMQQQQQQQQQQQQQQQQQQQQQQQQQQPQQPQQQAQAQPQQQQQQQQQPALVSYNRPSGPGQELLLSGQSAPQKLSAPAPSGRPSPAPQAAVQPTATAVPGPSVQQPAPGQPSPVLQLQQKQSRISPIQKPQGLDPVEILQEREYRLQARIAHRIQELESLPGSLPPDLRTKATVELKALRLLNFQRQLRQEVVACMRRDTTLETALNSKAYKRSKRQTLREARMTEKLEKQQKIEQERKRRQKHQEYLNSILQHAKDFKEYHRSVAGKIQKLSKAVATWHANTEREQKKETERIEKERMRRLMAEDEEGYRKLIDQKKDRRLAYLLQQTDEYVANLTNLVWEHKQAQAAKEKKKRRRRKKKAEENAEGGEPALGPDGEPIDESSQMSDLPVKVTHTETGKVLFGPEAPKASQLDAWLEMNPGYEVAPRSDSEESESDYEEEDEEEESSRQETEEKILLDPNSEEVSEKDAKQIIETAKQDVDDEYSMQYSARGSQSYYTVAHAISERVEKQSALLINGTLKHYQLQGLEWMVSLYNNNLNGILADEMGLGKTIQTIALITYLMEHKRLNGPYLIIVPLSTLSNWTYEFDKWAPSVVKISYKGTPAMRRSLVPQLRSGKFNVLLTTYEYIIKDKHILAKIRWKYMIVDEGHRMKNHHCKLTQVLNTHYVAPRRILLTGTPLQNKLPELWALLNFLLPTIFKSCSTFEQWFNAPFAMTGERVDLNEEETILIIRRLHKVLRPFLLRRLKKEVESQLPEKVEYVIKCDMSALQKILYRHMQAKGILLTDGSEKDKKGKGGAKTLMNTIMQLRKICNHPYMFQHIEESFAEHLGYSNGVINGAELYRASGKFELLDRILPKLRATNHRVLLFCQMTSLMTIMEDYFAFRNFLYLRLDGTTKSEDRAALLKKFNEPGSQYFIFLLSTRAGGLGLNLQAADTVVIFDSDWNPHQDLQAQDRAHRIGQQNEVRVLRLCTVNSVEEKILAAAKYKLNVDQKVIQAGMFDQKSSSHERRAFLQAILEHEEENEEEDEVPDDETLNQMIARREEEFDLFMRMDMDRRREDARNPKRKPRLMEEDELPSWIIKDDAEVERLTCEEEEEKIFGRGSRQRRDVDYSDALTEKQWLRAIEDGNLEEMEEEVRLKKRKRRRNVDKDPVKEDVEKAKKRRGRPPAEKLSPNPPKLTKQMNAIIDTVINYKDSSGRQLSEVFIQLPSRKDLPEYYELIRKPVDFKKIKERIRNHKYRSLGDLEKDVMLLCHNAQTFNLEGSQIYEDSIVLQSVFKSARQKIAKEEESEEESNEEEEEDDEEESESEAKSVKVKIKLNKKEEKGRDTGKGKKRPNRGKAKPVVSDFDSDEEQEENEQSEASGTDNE
UniProt P20065: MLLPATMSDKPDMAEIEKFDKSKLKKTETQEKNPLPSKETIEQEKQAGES

Experiments:
[1] = molecular target: BRG1 (Brahma-related gene 1) in mouse heart (mouse (endogenous in heart)) (UniProt Q3TKT4); experiment: sequential ChIP (re-ChIP); formaldehyde-fixed chromatin of mouse hearts (E11.5; adult primed with Tβ4, day 4 post-MI); first ChIP eluted and re-immunoprecipitated with a second antibody; qPCR of Wt1 ECRs, fold enrichment over IgG
[2] = molecular target: BRM (Brahma) in mouse heart (mouse (endogenous in heart)) (UniProt Q6DIC0); experiment: as above
[3] = molecular target: BRG1 (Brahma-related gene 1) in mouse heart (mouse (endogenous in heart)) (UniProt Q3TKT4); experiment: proximity ligation; Duolink II in situ PLA on cryosections of mouse embryonic and post-MI adult hearts; anti-rabbit PLUS and anti-mouse MINUS probes

Measured: binding

Thymosin β4 (Tβ4) in mouse heart (from UniProt P20065)
binds: [1] | [2] | [3]

No constants are given. Whether binding was seen depends on the method and setting. Binding can be weak; no strength is given. For part of these data: In cells and extracts the contact can be indirect.
